We go through 2 molecules from patent publication US20150212068A1, “Cholyl-L-Lysyl-Fluorescein Assay” (Novassay SA, priority 2012, published 2015).

Bounds are passed on as bounds.

Series [1] can be described thus: Intra-assay precision, sensitivity, spiking and dilution recovery of CLF added to different plasmas, labelled-antibody ELISA. The arrangement: species or system human. (In an ELISA, binding on a coated surface is turned into a signal by an enzyme label.)
The nature of series [2]: Assay drift and recovery of spiked CLF, CLF ELISA. Details: species or system human.
Series [3] can be described thus: Comparison of standards prepared from aqueous ethanol and methanol stock solutions, CLF ELISA. The series is classed as physicochemical.
The nature of series [4]: Evaluation of HPLC samples (Sample Set 2, rat samples) with the CLF ELISA.
The nature of series [5]: Interfering substances (haemolysis, icteria, lipaemia) in the CLF ELISA. Details: species or system human.
The mark [6] stands for this setting: test pool, interferent 1 mg/ml, Intralipid in 500 ng/ml CLF serum pool, Hb and bilirubin in 100 ng/ml pool (NaOH).

Regarding `CC(CCC(=O)NC(CCCCNC(=S)Nc1ccc(-c2c3ccc(=O)cc-3oc3cc(O)ccc23)c(C(=O)O)c1)C(=O)O)C1CCC2C3C(O)CC4CC(O)CCC4(C)C3CC(O)C12C` [CLF, Cholyl-L-Lysyl-Fluorescein], the sensitivity in series [1] (assay plate of plasma #5876) is 3.8 ng/mL; in series [1] (assay plate of plasma #5878), 2.8 ng/mL; in series [1] (assay plate of plasma #5881), 3 ng/mL; in series [1] (assay plate of plasma #5883), 3.3 ng/mL; in series [1] (assay plate of plasma #5884) it was 3.2 ng/mL; in series [1] (assay plate of plasma #5885) it was 3.8 ng/mL. Moreover, the observed in series [2] (#5885 #1, spiked a week prior, kept at 2-8° C., expected 62.5 ng/ml) turned out to be 63 ng/mL; in series [2] (#5885 #2, spiked a week prior, kept at 2-8° C., expected 125 ng/ml) it was 119 ng/mL; in series [2] (#5885 #3, spiked a week prior, kept at 2-8° C., expected 500 ng/ml) it was 485 ng/mL; in series [2] (QC1, serum spiked the day prior, expected 31.25 ng/ml) it was 37 ng/mL; in series [2] (QC2, serum spiked the day prior, expected 125 ng/ml), 119 ng/mL; in series [2] (QC3, serum spiked the day prior, expected 500 ng/ml), 438 ng/mL. Further, the results for the “difference between expected and obtained concentrations” value in series [3] (freshly prepared aqueous ethanol standards) and in series [3] (freshly prepared methanol standards) were 5% and 48%, respectively. In addition, the “slope, observed vs expected concentration” value came out at 1.05 in series [3] (freshly prepared aqueous ethanol stock standards read off aged (3 week old) aqueous ethanol standard curve) and 1.48 in series [3] (freshly prepared methanol stock standards read off aged (3 week old) aqueous ethanol standard curve). For the same molecule, the “Measured CLF (ng/ml) Mean” value in series [4] (Rat CAL 1) was under 5 ng/mL; in series [4] (Rat CAL 2), 22 ng/mL; in series [4] (Rat CAL 3), 54 ng/mL; in series [4] (Rat CAL 4), 174 ng/mL; in series [4] (Rat CAL 5) it was 346 ng/mL; in series [4] (Rat CAL 6), 721 ng/mL. In series [4] (Rat CAL 7), the “Measured CLF (ng/ml) Mean” value is 1368 ng/mL. In addition, the “Measured CLF (ng/ml) Rep. 1” value in series [4] (Rat CAL 1) turned out to be 6.2 ng/mL; in series [4] (Rat CAL 2) it was 22.7 ng/mL; in series [4] (Rat CAL 3), 55.0 ng/mL; in series [4] (Rat CAL 4) it was 163.6 ng/mL; in series [4] (Rat CAL 5), 381.0 ng/mL; in series [4] (Rat CAL 6), 712.4 ng/mL. Moreover, in series [4] (Rat CAL 7), the “Measured CLF (ng/ml) Rep. 1” value stood at 1272.1 ng/mL. Besides, the “Measured CLF (ng/ml) Rep. 2” value is 2.5 ng/mL in series [4] (Rat CAL 1); 22.2 ng/mL in series [4] (Rat CAL 2); 52.2 ng/mL in series [4] (Rat CAL 3); 185.2 ng/mL in series [4] (Rat CAL 4); 311.2 ng/mL in series [4] (Rat CAL 5); 730.5 ng/mL in series [4] (Rat CAL 6). Also, the “Measured CLF (ng/ml) Rep. 2” value in series [4] (Rat CAL 7) was determined as 1464.7 ng/mL.
On to Hb, for which, in series [5] (% change in CLF concentration vs base pool, interferent 1 mg/ml, Intralipid in 500 ng/ml CLF serum pool, Hb and bilirubin in 100 ng/ml pool (NaOH)), the “effect of interference end of plate” value is given as −4%. The “CLF concentration, ng/ml” value in series [5] (high dose spikes, test pool: Intralipid 230 mg/ml, haemoglobin and bilirubin 4 and 4.5 mg/ml, off scale = >1000 ng/ml) is listed as “off”. In addition, in series [5] (setting [6]), the “CLF concentration, ng/ml beginning of plate” value amounted to 83 ng/mL and the “CLF concentration, ng/ml end of plate” value was 83 ng/mL.
